These are literature values, as cited in US20100040669A1, “Non-Invasive Ocular Delivery of Rapamycin” (priority 2008, published 2010).

The conditions of this data set: in water; stated as "on the order of about".

On to `CO[C@H]1C[C@@H]2CC[C@@H](C)[C@@](O)(O2)C(=O)C(=O)N2CCCC[C@H]2C(=O)O[C@H]([C@H](C)C[C@@H]2CC[C@@H](O)[C@H](OC)C2)CC(=O)[C@H](C)/C=C(\C)[C@@H](O)[C@@H](OC)C(=O)[C@H](C)C[C@H](C)/C=C/C=C/C=C/1C` [rapamycin], for which the water solubility result is reported as “about 2.8 μM”.
